# Some of the results follow. These are further read-outs of the screen, such as a control signal, another cell line or another target. No call is given for them. Compounds called inactive in the main read-out are mostly missing here. The note in brackets gives the kind of curve behind each potency; many fits are weak.
# Assay: qHTS Assay for Lipid Storage Modulators in Drosophila S3 Cells;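 as to cell number change: cells counted by Cell Tracker Red CMTPX staining in the red channel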
# Conditions: BODIPY lipid droplet fluorescence, 18-24 h; for cell number change: measured here: cell count max response, cells fed with added oleic acid
# In short: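 Drosophila S3 cells loaded with oleic acid (400 uM, as added) and compounds at several concentrations; lipid droplets imaged by 488-nm laser-scanning cytometry, 500–530 nm intensity and object ratio to cell channel. Percent activity normalized to 20 uM Triacsin C.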
# [1] = measured here: cell number channel AC50, cells fed with added oleic acid
# [2] = measured here: lipid fluorescence (Fed channel) AC50, cells fed with added oleic acid
Compound,cell number change [%],AC50 [1],AC50 [2]
COCCCN1C(=O)CC(C(=O)OC)=C1C,-37.1,"14.6 µM [falling, partial curve, poor fit]","4.11 µM [falling, partial curve, poor fit]"
COc1cc(NC(=O)Cc2ccccc2)ccc1NC(=O)c1ccco1,-3.95,–,"3.66 µM [rising, single point]"
Cc1ccc(C)c(CSc2nnc(C)c(=O)n2N)c1,20.1,"0.082 µM [falling, full curve, poor fit]","32.6 µM [rising, single point]"
CC1(C)CC(=O)C(C=NCCN2CCNC2=O)=C(O)C1,-15.9,–,"3.66 µM [falling, single point]"
Cc1ccc(NC(=O)CN(C)S(=O)(=O)c2ccc(Br)s2)cc1F,3.05,–,"16.4 µM [rising, single point]"
COC1=Cc2c(ccc3ccc(=O)oc23)OC1(C)C,-38.1,"29.1 µM [falling, single point]","0.517 µM [falling, full curve]"
C=CCn1c(NC)cc(=O)n(C)c1=O,–,–,"25.9 µM [rising, single point]"
Cc1cc(C)cc(N(CC(=O)NC2CCCC2)C(=O)CNC(=O)c2ccco2)c1,-23.8,–,–
CCOc1ccc(NC(=O)C(CC(=O)O)Cc2ccc(C)cc2)cc1 (centres undefined),7.37,–,–
COc1ccc(P(=O)(COc2ccc([N+](=O)[O-])cc2)c2ccc(OC)cc2)cc1,42.5,"29.1 µM [rising, single point]","29.1 µM [rising, partial curve]"
CCOC(=O)c1sc(NC(=O)CSc2n[nH]c(-c3ccncc3)n2)c(C#N)c1C,15.9,"0.731 µM [rising, full curve]","29.1 µM [rising, single point]"
COc1ccccc1NC(=O)/C(=C\c1cccs1)NC(=O)c1ccco1,-52.9,"8.2 µM [falling, partial curve, poor fit]","6.51 µM [falling, partial curve]"
COc1ccc(NC(=O)CSc2nc3c(sc4ccccc43)c(=O)n2CCCN2CCCC2)cc1,49.8,"16.4 µM [rising, single point]","4.61 µM [rising, single point]"
CCc1cccc(C)c1NC(=O)CN(C)C1=NS(=O)(=O)c2ccccc21,-1.3,–,"0.461 µM [rising, single point]"
CCCC(c1nnnn1C(C)(C)CC)N(CCCO)Cc1cc2cc(C)cc(C)c2[nH]c1=O (centres undefined),5.38,"0.146 µM [rising, full curve, poor fit]",–
O=C(NC1CCCCC1)c1cc(Cl)ccc1[N+](=O)[O-],-32.5,"29.1 µM [falling, single point]","0.0411 µM [falling, full curve, poor fit]"
O=C(NC1CC1)C1CCN(C2CCN(C(=O)c3ccc(C(F)(F)F)cc3)CC2)CC1,–,–,"0.58 µM [falling, single point]"
Nc1cc(-c2ccc(Cl)cc2)nn1S(=O)(=O)c1cccc2nsnc12,11.1,–,"0.0146 µM [rising, full curve, poor fit]"
O=C(CNCCC1=CCCCC1)Nc1ccccc1N1CCCCC1,-233,"29.1 µM [falling, single point]","29.1 µM [falling, single point]"
COc1ccc(-n2cc(CNCCc3cscn3)c(-c3ccccc3Cl)n2)cc1,–,–,"0.461 µM [falling, single point]"

# Compounds listed so far that have two or more sulfur atoms:
Compound,cell number change [%],AC50 [1],AC50 [2]
Cc1ccc(NC(=O)CN(C)S(=O)(=O)c2ccc(Br)s2)cc1F,3.05,–,"16.4 µM [rising, single point]"
CCOC(=O)c1sc(NC(=O)CSc2n[nH]c(-c3ccncc3)n2)c(C#N)c1C,15.9,"0.731 µM [rising, full curve]","29.1 µM [rising, single point]"
COc1ccc(NC(=O)CSc2nc3c(sc4ccccc43)c(=O)n2CCCN2CCCC2)cc1,49.8,"16.4 µM [rising, single point]","4.61 µM [rising, single point]"
Nc1cc(-c2ccc(Cl)cc2)nn1S(=O)(=O)c1cccc2nsnc12,11.1,–,"0.0146 µM [rising, full curve, poor fit]"

# Additional structures:

Compound,cell number change [%],AC50 [1],AC50 [2]
C=CCOc1ccc(/C=N/Nc2ccccn2)cc1OC,1.1,"6.51 µM [rising, single point]",–
CC(C)Cc1nc2ccccc2[nH]1,14.5,–,–
C=CCN1C(=O)CN=C1Nc1ccc(OC)cc1OC,-5.42,–,–
CCC(C)(C)NC(=O)C(c1ccccc1Cl)N(Cc1cccnc1)C(=O)CCC(=O)Nc1cc(C)on1 (centres undefined),11.2,–,"0.461 µM [rising, partial curve]"
Cc1c(N/C=C(\Cl)C(=O)C(F)(F)F)c(=O)n(-c2ccccc2)n1C,10.5,–,–
O=C(CN1C(=O)C2CC=CCC2C1=O)NC1CCCCC1 (centres undefined),5.77,–,–
COc1ccc(CNC(=O)COC(=O)CNC(=O)c2sc3ccccc3c2Cl)cc1OC,4.67,"4.61 µM [rising, single point]","6.51 µM [rising, single point]"
COc1ccccc1NC(=S)NC(=O)c1c(-c2ccccc2Cl)noc1C,21.4,–,"2.06 µM [rising, full curve, poor fit]"
O=C(N/C=C/c1ccc(Cl)cc1)NCc1ccc(Cl)cc1,-19.3,–,"1.64 µM [rising, partial curve, poor fit]"
Cc1cccc(N2CCN(C(=O)Cc3ccc(Br)cc3)CC2)c1C,46,"25.9 µM [rising, single point]",–
Nc1nc(NC(=O)c2cccc(S(=O)(=O)N3CCCCCC3)c2)nc(-c2ccccc2)n1,-6.63,–,"0.92 µM [rising, single point]"
CC(=O)OCCCNc1cc(Sc2nc3ccccc3s2)c2nonc2c1[N+](=O)[O-],18.1,–,"0.92 µM [falling, full curve, poor fit]"
O=C(CN(c1ccccc1)S(=O)(=O)c1ccc(Cl)cc1)Nc1ccccc1C(=O)N1CCCC1,34.6,"16.4 µM [rising, single point]","0.82 µM [falling, single point]"
COCCN1CC(C(=O)NCCc2nc(C)c(C)s2)CCC1=O (centres undefined),-1.42,"0.058 µM [rising, full curve, poor fit]",–
O=C(COC(=O)c1cccc(Cl)c1)NC1CCS(=O)(=O)C1 (centres undefined),-8.54,–,–
CCCn1c2ccccc2c2cnn(CC(=O)NCCCN3CCN(c4ccccc4)CC3)c(=O)c21,-2.09,–,"6.51 µM [rising, single point]"
O=C(CC1OC(=O)c2ccccc21)Nc1cc(S(=O)(=O)N2CCOCC2)ccc1OCC(F)(F)F (centres undefined),29.7,"1.3 µM [rising, full curve, poor fit]",–
Cc1cc(C)c(C)c(S(=O)(=O)N2CCN(Cc3nc4ccccc4[nH]3)CC2)c1C,–,–,"29.1 µM [rising, partial curve, poor fit]"
CCOC(=O)CNC(=O)c1sc(NC(=O)c2ccccc2F)nc1C,-5.25,–,"0.291 µM [rising, full curve, poor fit]"
CCOc1ccccc1N1CCN(C(=O)CC(C)C)CC1,75.6,"18.4 µM [rising, single point]","16.4 µM [rising, single point]"

Compound,cell number change [%],AC50 [1],AC50 [2]
CC(=O)N1N=C(c2cccc(Cl)c2)OC1c1ccc(C(C)C)cc1 (centres undefined),1.07,–,"29.1 µM [falling, single point]"
CCn1c(/C=C2\C(=O)N(C(C)C)c3ccccc32)nc2ccccc2c1=O,-32.2,"14.6 µM [falling, single point]",–
CN(C)c1ccc(CN(C(=O)c2cc3ccccc3oc2=O)C2CCS(=O)(=O)C2)cc1 (centres undefined),12,–,–
O=C(NC1CCCCC1)C(c1ccc2ncccc2c1)N(Cc1ccccc1)C(=O)c1cccs1 (centres undefined),65.7,"23.1 µM [rising, single point]",–
C=CCn1c(NC(=O)c2ccc(C)cc2)nc2ccccc21,-13.1,–,"0.517 µM [rising, single point]"
CC(=O)N1N=C(c2ccccc2)CC1c1cccs1 (centres undefined),55,"11.6 µM [rising, partial curve, poor fit]",–
COC(=O)c1ccc(C(=O)Nc2ccc3nc(-c4cccnc4)[nH]c3c2)cc1,–,–,"5.8 µM [rising, full curve]"
N#Cc1c2c(c(NCCOCCO)n3c1nc1ccccc13)CCCC2,-28.8,"0.82 µM [falling, full curve, poor fit]",–
CSCCC(NC(=O)OC(C)(C)C)C(=O)Oc1ccc2c(=O)c(-c3ccc4c(c3)OCCO4)coc2c1 (centres undefined),-21.2,–,"0.164 µM [falling, full curve, poor fit]"
COC(=O)CN1C(=O)C(O)(CC(=O)c2ccc(Cl)cc2)c2ccccc21 (centres undefined),-1.76,"0.58 µM [falling, single point]",–
Nc1ccccc1NC(=O)CCn1c(=S)[nH]c2ccccc2c1=O,-23.8,–,"6.51 µM [falling, single point]"
O=C(CCCCn1c(=O)[nH]c2ccsc2c1=O)NCc1ccc2c(c1)OCO2,–,–,"32.6 µM [rising, single point]"
N#CC1=C(N)NC(SCC(=O)Nc2ccc(Br)cc2)=C(C#N)C12CCCCC2,62.2,"0.206 µM [rising, full curve]","0.058 µM [rising, full curve, poor fit]"
CC(C)(C)NS(=O)(=O)c1ccc(NC(=O)c2cc(-c3ccccc3)nc3ccccc23)cc1,1.55,–,–
CC(OC(=O)C1CCN(c2ccc(C(F)(F)F)cn2)CC1)C(=O)Nc1cccc([N+](=O)[O-])c1 (centres undefined),-4.9,–,–
COc1cccc(-c2csc(N3CCN(CC(=O)Nc4ccc5c(c4)OCO5)CC3)n2)c1,-1.33,–,"2.91 µM [rising, partial curve]"
CC1=CCC2C(=O)N(c3ccc(Br)cc3C)C(=O)C2C1 (centres undefined),-14.7,–,"0.103 µM [rising, full curve, poor fit]"
CC1(C)CC2CC(C)(CN2C(=O)c2ccc([N+](=O)[O-])cc2[N+](=O)[O-])C1 (centres undefined),-111,–,–
COc1ccc(C(=O)NCCNc2nc3cc(C)c(C)cc3cc2C)cc1,-18,–,"3.26 µM [rising, partial curve, poor fit]"

# Reference: PubChem BioAssay AID2685 (National Center for Advancing Translational Sciences (NCATS), 2010)
